# Laboratory results as given in US5610171A, “Inhibition of metastasis in patients having cancer with pyridyloxazole-2-ones” (Merrell Pharmaceuticals Inc., priority 1995, dated 1997).
# What was measured:
# B16F1 cells = assay: Experimental lung metastasis assay (B16F1 cells treated in culture, then injected intravenously into C57BL/6 mice); assay type: in vivo, murine (C57BL/6 mice); details: Mus musculus, B16-F1, iv, read-out: B16 Metastasis IC50
# Protocol: Experimental Metastasis Assay
# Sub-confluent B16F1 cells were harvested by washing with HBSS followed by trypsinization for 1 minute. The cells were sedimented by centrifugation (250 g, 5 minutes) and washed twice with HBSS. Viable cells were counted after dilution with trypan blue. A single-cell suspension of 10^5 cells in 0.2 ml HBSS was injected intravenously into 16-18 C57BL/6 mice via the tail vein. Three weeks later, the number of metastatic foci in the lung were counted.
# Sub-confluent B16F1 cells were incubated with 4-propyl-
# 5(4-pyridinyl)-2(3H)-oxazolone (compound 1) for 24 hours at
# (§1) 37° C. Cells were then harvested and 1 × 10^5 cells
# injected intravenously into mice. Three weeks later,
# metastatic nodules were counted as described in Material
# ^b Subconfluent B16F1 cells were exposed to drugs for 24 hours at
# as §1
# injected intravenously into mice. The number of metastatic nodules were
# quantitated three weeks later.
# membrane-associated PKC = assay: Inhibition of B16F1 membrane-associated PKC activity; assay type: biochemical, murine; details: B16F1 membrane fraction
# Protocol: Protein Kinase C Preparation
# Cytostolic and membrane-associated PKC was prepared as described in Thomas, T. P., Gopalakrishna, R. and Anderson, W. B. Hormone- and tumor promoter-induced activation of membrane association of protein kinase C in intact cells, Methodsin Enzymology, 141: 399-411, 1987. Sub-confluent B16F1 cultures (4×10^7 cells total) were washed twice with phosphate buffered saline (PBS), pH 7.2 and then twice with buffer A (20 mM Tris, pH 7.5, 2 mM EDTA, 0.5 mM EGTA, […], 2 mM phenylmethylsulfonyl fluoride (PMSF), and 2 μg/ml leupeptin). Cells were scraped from the plates in buffer A, homogenized (40 strokes) and sedimented by centrifugation for 1 hour at 100,000 g. […]
# PKC was quantitated as described in Thomas et al., ibid. […]
# then measured in the presence of the drugs listed.
smiles,measurement,setting,value
"CN[C@@H]1C[C@H]2O[C@@](C)([C@@H]1OC)n1c3ccccc3c3c4c(c5c6ccccc6n2c5c31)C(=O)NC4 [Staurosporine, reference compound]",IC50,B16F1 cells,30 nM
same,IC50,membrane-associated PKC,25 nM
